Reference: PubChem BioAssay AID1259326 (Drosophila RNAi Screening Center, 2017)

Purpose: 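Knock-downs that shift cellular ATP after a high zinc chloride dose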
System: Drosophila S2R+ cells
Knock-down reagent: long dsRNA against Drosophila genes
Duration: about 5 days (4 days of RNAi, then 1 day of zinc)
Conditions: zinc chloride added to 15 mM final for one day
Measurement: 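Luminescent ATP signal marks surviving cells, read after RNAi for 4 days then 15 mM zinc chloride for 1 day; z-scores are replicate means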
Direction: averaged z-score: higher = more ATP than other wells, i.e. more surviving cells, after zinc; ATP luminescence: higher = more ATP, i.e. more surviving cells
Active means: 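Active if the averaged z-score exceeds 1.5 or falls under -1.5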
Shown is an unselected part of 573 reagents tested. 39 of all reagents (6.8%) count as active. 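All actives have raised ATP, meaning more surviving cells; in these data active calls sit at averaged z-scores near 1.5 or above.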 Raw values vary from plate to plate and are shown uncorrected. No sequences are given here. Not stated in the record: the amount of reagent.

Against eRF3 (eukaryotic translation release factor 3) [DRSC03322], the values are averaged z-score 1.9; ATP luminescence, replicate 1 = 1.40e5; ATP luminescence, replicate 2 = 1.11e5; active.
Depletion of eRF3 (eukaryotic translation release factor 3) [DRSC32119] resulted in: averaged z-score -0.0377; ATP luminescence, replicate 1 = 89519; ATP luminescence, replicate 2 = 64919; inactive.
eRF3 (eukaryotic translation release factor 3) [DRSC32120] showed averaged z-score 1.55; ATP luminescence, replicate 1 = 96052; ATP luminescence, replicate 2 = 1.02e5; active.
Knock-down of garz (gartenzwerg) [DRSC07193] came out at: averaged z-score 0.446; ATP luminescence, replicate 1 = 1.03e5; ATP luminescence, replicate 2 = 89773; inactive.
garz (gartenzwerg) [DRSC32127] showed averaged z-score 0.292; ATP luminescence, replicate 1 = 79875; ATP luminescence, replicate 2 = 83597; inactive.
For garz (gartenzwerg) [DRSC32128] the deposit lists averaged z-score -0.192; ATP luminescence, replicate 1 = 71453; ATP luminescence, replicate 2 = 80081; inactive.
With knock-down of Pi3K68D (Phosphatidylinositol 3-kinase 68D) [DRSC28860], the record shows averaged z-score 0.0645; ATP luminescence, replicate 1 = 91420; ATP luminescence, replicate 2 = 86325; inactive.
Pi3K68D (Phosphatidylinositol 3-kinase 68D) [DRSC32163] gave averaged z-score 0.0371; ATP luminescence, replicate 1 = 66840; ATP luminescence, replicate 2 = 78031; inactive.
For Pi3K68D (Phosphatidylinositol 3-kinase 68D) [DRSC32164] the deposit lists averaged z-score 0.136; ATP luminescence, replicate 1 = 87457; ATP luminescence, replicate 2 = 73752; inactive.
Against Uba5 (Ubiquitin-like activating enzyme 5) [DRSC19775], the entry reads averaged z-score -0.00994; ATP luminescence, replicate 1 = 83004; ATP luminescence, replicate 2 = 80818; inactive.
After knock-down of Uba5 (Ubiquitin-like activating enzyme 5) [DRSC38214] the results were averaged z-score -0.297; ATP luminescence, replicate 1 = 71639; ATP luminescence, replicate 2 = 79314; inactive.
Uba5 (Ubiquitin-like activating enzyme 5) [DRSC41174] gave averaged z-score 0.0644; ATP luminescence, replicate 1 = 72345; ATP luminescence, replicate 2 = 75776; inactive.

Sorted by “ATP luminescence, replicate 1” (lowest first): 4 of the entries above.
eRF3 (eukaryotic translation release factor 3) [DRSC32119] | averaged z-score = -0.0377; ATP luminescence, replicate 1 = 89519; ATP luminescence, replicate 2 = 64919; Outcome = inactive
eRF3 (eukaryotic translation release factor 3) [DRSC32120] | averaged z-score = 1.55; ATP luminescence, replicate 1 = 96052; ATP luminescence, replicate 2 = 1.02e5; Outcome = active
garz (gartenzwerg) [DRSC07193] | averaged z-score = 0.446; ATP luminescence, replicate 1 = 1.03e5; ATP luminescence, replicate 2 = 89773; Outcome = inactive
eRF3 (eukaryotic translation release factor 3) [DRSC03322] | averaged z-score = 1.9; ATP luminescence, replicate 1 = 1.40e5; ATP luminescence, replicate 2 = 1.11e5; Outcome = active

The listing continues.
Tao [DRSC19573] gave averaged z-score -0.0926; ATP luminescence, replicate 1 = 1.13e5; ATP luminescence, replicate 2 = 64319; inactive.
With knock-down of Tao [DRSC28431], the record shows averaged z-score 0.516; ATP luminescence, replicate 1 = 92274; ATP luminescence, replicate 2 = 79360; inactive.
Tao [DRSC34597] showed averaged z-score 0.182; ATP luminescence, replicate 1 = 67114; ATP luminescence, replicate 2 = 82796; inactive.
Adsl (Adenylosuccinate lyase) [DRSC15500] gave averaged z-score -0.555; ATP luminescence, replicate 1 = 83420; ATP luminescence, replicate 2 = 87903; inactive.
After knock-down of Adsl (Adenylosuccinate lyase) [DRSC41182], the record shows averaged z-score -0.0648; ATP luminescence, replicate 1 = 67602; ATP luminescence, replicate 2 = 76050; inactive.
For Agps (Alkylglycerone phosphate synthase) [DRSC05984], the values are averaged z-score 0.199; ATP luminescence, replicate 1 = 1.05e5; ATP luminescence, replicate 2 = 79086; inactive.
Agps (Alkylglycerone phosphate synthase) [DRSC26742] showed averaged z-score 0.289; ATP luminescence, replicate 1 = 79137; ATP luminescence, replicate 2 = 91677; inactive.
With knock-down of Agps (Alkylglycerone phosphate synthase) [DRSC41165] the results were averaged z-score -0.158; ATP luminescence, replicate 1 = 63843; ATP luminescence, replicate 2 = 80024; inactive.
Knock-down of Uvrag (UV-resistance associated gene) [DRSC02932] resulted in: averaged z-score -0.179; ATP luminescence, replicate 1 = 87925; ATP luminescence, replicate 2 = 74266; inactive.
Uvrag (UV-resistance associated gene) [DRSC32079] showed averaged z-score -0.285; ATP luminescence, replicate 1 = 81179; ATP luminescence, replicate 2 = 59552; inactive.
After knock-down of Uvrag (UV-resistance associated gene) [DRSC32080], the screen gave averaged z-score -0.337; ATP luminescence, replicate 1 = 65622; ATP luminescence, replicate 2 = 71968; inactive.
Atg12 (Autophagy-related 12) [DRSC09803] gave averaged z-score 0.506; ATP luminescence, replicate 1 = 1.05e5; ATP luminescence, replicate 2 = 1.38e5; inactive.
Atg12 (Autophagy-related 12) [DRSC41151] gave averaged z-score 0.198; ATP luminescence, replicate 1 = 65657; ATP luminescence, replicate 2 = 84609; inactive.
Rho1 [DRSC30797] gave averaged z-score -0.0726; ATP luminescence, replicate 1 = 71059; ATP luminescence, replicate 2 = 68675; inactive.
Silencing of Rho1 [DRSC30798] came out at: averaged z-score -0.179; ATP luminescence, replicate 1 = 75981; ATP luminescence, replicate 2 = 74774; inactive.
Silencing of Atg9 (Autophagy-related 9) [DRSC06848] came out at: averaged z-score 0.188; ATP luminescence, replicate 1 = 1.02e5; ATP luminescence, replicate 2 = 76496; inactive.
With knock-down of Atg9 (Autophagy-related 9) [DRSC38118], the record shows averaged z-score 0.22; ATP luminescence, replicate 1 = 76565; ATP luminescence, replicate 2 = 80925; inactive.
For Atg9 (Autophagy-related 9) [DRSC38119], the entry reads averaged z-score 0.237; ATP luminescence, replicate 1 = 80887; ATP luminescence, replicate 2 = 89069; inactive.
